From PubChem BioAssay AID540303 (National Center for Advancing Translational Sciences (NCATS), 2011)
Out of some 330,000 compounds screened, about 1,000 (0.3%) were called active. Inconclusive results, whose numbers are uncertain, are shown with a selection of clear calls. Calls come from the whole dose curve; as a rule, active = well fitted inhibition curve with a large enough effect; inconclusive = small, poorly fitted or top-dose-only effect; inactive = no such curve, though single readings can be large or run the other way; tested in mouse RAW 264.7 cells. A potency beside an inconclusive call is a rough fit, not a confirmed value.

Assay: qHTS for Inhibitors of Cell Surface uPA Generation; note: nearly all actives have a fitted effect of over 55% in size
Details: cell surface uPA generation assay; series mostly up to 38.3 µM
Outline: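 Murine RAW 264.7 cells are treated for 24 h with compound up to 38.3 uM final. Cell ATP, measured by ATP-Lite, remains high if blocking the uPA cascade prevents LF from reaching the cytoplasm.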
Potency is the fitted concentration of half-maximal effect.

SMILES	Potency
Cc1ccc(C(=O)Nc2ccc3c(c2)OCO3)cc1	inconclusive: 0.794 µM [inhibitor, full curve]
O=C(c1ccc2ccccc2n1)N(CCO)Cc1ccccc1	inactive
Cc1ccccc1NNC(=O)C(=O)NNc1ccccc1C	inconclusive: 14.1 µM [inhibitor, partial curve, poor fit]
CCN(CC)CCOC(=O)c1ccc(NC(=O)CCCN2C(=O)/C(=C/c3cccs3)SC2=S)cc1	inconclusive: 10 µM [inhibitor, partial curve, poor fit]
CCc1cc(C)cc(OCCOc2ccccc2/C=N/NC(C)=O)c1	inconclusive: 12.6 µM [inhibitor, single point]
Cc1ccc(NC2CCCN(C(=O)c3ccnc(Cl)c3)C2)cc1C (stereo unspecified)	inactive
COc1ccc(S(=O)(=O)Nc2cccc(-c3ccc(N4CCCCCC4)nn3)c2)cc1OC	inactive
CC(C)(C)c1cc(Cl)c(O)c(NC(=S)NC(=O)c2cccnc2)c1	inconclusive: 12.6 µM [inhibitor, partial curve]
O=C(NCCCN1CCOCC1)c1cc(-c2ccc(O)cc2)on1	inconclusive: 7.08 µM [inhibitor, partial curve, poor fit]
N#CC1=C(N)Oc2c(ccc3cccnc23)C1c1ccccc1 (stereo unspecified)	active: 1.26 µM
Oc1c(Br)cc(Br)cc1C=NCc1ccc(F)cc1	inactive
CC(=O)c1sc(NC(=O)c2ccccc2)nc1-c1ccccc1	inconclusive: 12.6 µM [inhibitor, single point]
CC(C)c1ccc(/C=C2\SC(=O)N(CC(=O)NC3C=CS(=O)(=O)C3)C2=O)cc1 (stereo unspecified)	inconclusive: 1.12 µM [inhibitor, single point]
Cc1ccc(NC(=S)NNC(=O)c2nn(C)cc2Cl)cc1	inactive
COc1cc(O)c2c(=O)cc(-c3ccccc3)oc2c1	inactive
Cc1ccccc1C1c2[nH]c3ccccc3c2C[C@H]2C(=O)N(c3ccccc3C(=O)NCCN3CCOCC3)C(=O)N12 (stereo partly specified)	inconclusive: 8.91 µM [inhibitor, partial curve, poor fit]
COc1ccc([C@H]2CC(=O)C=C(c3ccccc3-c3ccccc3)C2)cc1	inconclusive: 12.6 µM [inhibitor, single point]
CC1(C)C(C=C(Cl)Cl)C1C(=O)Nc1ccc([N+](=O)[O-])cc1 (stereo unspecified)	inactive
Cc1ccc(-n2nc(C)c3c2C(Br)C(C)(C)CC3=O)nc1 (stereo unspecified)	inactive
Cc1c(C(=O)OCc2ccccc2)[nH]c2c1C(=O)CC(c1ccco1)C2 (stereo unspecified)	active: 1 µM
NC(=O)CC(NC(=O)Cc1ccc(Cl)cc1)c1ccc(NC2CC3CCC2C3)c([N+](=O)[O-])c1 (stereo unspecified)	inconclusive: 3.16 µM [inhibitor, partial curve]

A few values from the results shown:
Entry for Cc1ccccc1NNC(=O)C(=O)NNc1ccccc1C under Potency: inconclusive: 14.1 µM [inhibitor, partial curve, poor fit]
Entry for Oc1c(Br)cc(Br)cc1C=NCc1ccc(F)cc1 under Potency: inactive
